# Measurements from paper PMC4446440, “Structural and functional analysis reveals that human OASL binds dsRNA to enhance RIG-I signaling” (Nucleic Acids Research, 2015).
# The comparison behind a weaker result is the experiment's own reference, which may not be listed here. Where a protein sequence is shown, tags need not be part of it.
# Assays:
# OLD K66E (Homo sapiens) [1] = target: T1, OLD K66E (Homo sapiens) (UniProt Q15646); assay: EMSA (RNA retention); conditions: dsRNA 10 uM, K66E 0-56 uM, impairment partly overcome at higher concentration; 100 mM DL-malic acid pH 5.9, 200 (unit not given) Na2SO4, 300 mM NaCl, 1.5 mM MgCl2, 2 mM BME, 5% glycerol; 37 C 15 min; native PAGE in 0.5x TBE; recombinant protein; residues 1-350; protein details: C-terminal 6xHis
# T1 sequence (looked up): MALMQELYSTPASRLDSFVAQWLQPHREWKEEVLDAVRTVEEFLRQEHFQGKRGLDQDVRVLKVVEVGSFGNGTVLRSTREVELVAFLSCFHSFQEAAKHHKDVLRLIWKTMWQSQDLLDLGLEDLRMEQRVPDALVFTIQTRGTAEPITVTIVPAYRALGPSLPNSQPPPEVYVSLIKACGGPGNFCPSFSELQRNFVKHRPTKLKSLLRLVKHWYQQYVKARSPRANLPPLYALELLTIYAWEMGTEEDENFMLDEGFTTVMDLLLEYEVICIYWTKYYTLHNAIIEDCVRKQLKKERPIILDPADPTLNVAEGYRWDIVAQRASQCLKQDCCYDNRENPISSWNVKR
# OLD K66E (Homo sapiens) [2] = target: T1, OLD K66E (Homo sapiens); assay: EMSA; conditions: OLD K66E 2.4 uM, dsRNA 8.6 uM, protein stained/immunoblot, 1.5 mM Mg2+; 100 mM DL-malic acid pH 5.9, 200 (unit not given) Na2SO4, 300 mM NaCl, 1.5 mM MgCl2, 2 mM BME, 5% glycerol; 37 C 15 min; native PAGE in 0.5x TBE; recombinant protein; residues 1-350; protein details: C-terminal 6xHis
sequence,measurement,setting,value
GGCUUUUGACCUUUAUGC / GCAUAAAGGUCAAAAGCC [18 bp dsRNA],binding result,OLD K66E (Homo sapiens) [1],binds more weakly
same,binding result,OLD K66E (Homo sapiens) [2],binds more weakly
